Ends that are not written are not given here.
Test: general procedure: solution-phase peptide synthesis; EDC/HOOBt; HBTU/DIPEA; EDC/HOBt
Details: TPB salt, HCl salt
[1] = coupling step, based on NMR content

**Q.** Which step yield (late stage modification step, based on the titration) does the source give for 2HCl.H-Trp-Arg-Arg-Lys(Boc)-NH2 here?
**A.** 95%

**Q.** For “2HCl.H-Trp-Trp-Pro-Trp-Arg-Arg-Lys(Boc)-NH2”, which step yield (late stage modification step, based on titration) is on record?
**A.** 82%

**Q.** For RWPWWPWRRK, which step yield (late stage modification step, based on NMR content measurement) is on record?
**A.** 93%

**Q.** Which step yield [1] does the source give for “Z-Arg-Trp-Pro-Trp-Trp-Pro-Trp-Arg-Arg-Lys(Boc)-NH2.3TPB” here?
**A.** 87%

**Q.** For Z-Trp-Arg-Arg-Lys(Boc)-NH2.2TPB, which step yield (coupling step, based on titration content) is on record?
**A.** 83%

**Q.** Which step yield [1] does the source give for “Z-Trp-Trp-Pro-Trp-Arg-Arg-Lys(Boc)-NH2.2TPB” here?
**A.** 98%

From patent US10174075 (dated 2019)
